Results: patent US20130237684A1
Results are given in words; binding and its absence hold for the method and conditions named. Some binding calls cover weakened binding; strength is not graded here.

Sequences of proteins named here, by UniProt entry; tags and fusion partners are left off. Residues count along the entry.
UniProt P0CG63, residues 1-76: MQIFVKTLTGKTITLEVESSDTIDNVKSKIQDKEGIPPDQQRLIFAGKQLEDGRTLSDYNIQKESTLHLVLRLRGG

Target: Yeast ubiquitin (Sigma) (yeast) (UniProt P0CG63)
Test: clone isolated by phage display selection on ubiquitin; listed as ubiquitin-binding monobody

B1: ubiquitin-binding monobody 422 (Fn3 with BC loop ARWTL and FG loop RRWWW), phage clone (designed binder, not shown: large carriers; small tags and cut ends)
chain: VSDVPRDLEVVAATPTSLLISWDAPARWTLYYRITYGETGGNSPVQEFTVPGSKSTATISGLKPGVDYTITVYAVTRRWWWSKPISINYRT
binding: binds

B2: ubiquitin-binding monobody 424 (Fn3 with BC loop GQRTF and FG loop RRWWA), phage clone (designed binder, not shown: large carriers; small tags and cut ends)
chain: VSDVPRDLEVVAATPTSLLISWDAPGQRTFYYRITYGETGGNSPVQEFTVPGSKSTATISGLKPGVDYTITVYAVTRRWWASKPISINYRT
binding: binds
